In the supplement of paper PMC10126150:
± gives the standard deviation of the averaged measurements.

System: ATP
Assay: switch fluorescence ratio, 500 uM ATP over buffer (Cy3 cluster intensity, sum of 5 cycles each) (fold (ratio)); higher = stronger signal-on switching upon ATP binding; sequences stand for … in TCGTCGGCAGCGTCAGATGTGTATAAGAGACAGTTTTTTTTTTTTTTTTTTTTTTTTT…TC
Details: aptamer strand: ATP DNA aptamer (quencher-CACCTGGGGGAGTATTGCGGAGGAAGG + anchor), 100 nM annealed; ATP concentration: 500 uM
Method in brief: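 Five buffer/ATP imaging cycles were run on Cy3-labelled switching-strand clusters on a modified Illumina MiSeq flow-cell, with NaOH stripping and re-annealing between cycles. In each cycle, clusters annealed to 100 nM quencher-labelled ATP aptamer were imaged in selection buffer, then after 15 min with 500 uM ATP at 22 °C. Per cluster, the fluorescence ratio is summed target-cycle over summed buffer-cycle Cy3 intensity, averaged per switch-domain sequence. Only clusters within 100-1000 RFU were kept.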
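Also: ATP exposure 15 min at 22 °C before imaging.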

GAGATGGAGT
switch fluorescence ratio: 0.974 ± 0.03
